Results published in patent publication US12723053B2, “KRas inhibitors” (ELI LILLY AND COMPANY, priority 2023, dated 2026).
Some of these results come from one statement about several compounds together.

How the values were obtained:
WT KRAS Amplification = target: T1, WT KRAS Amplification (Homo sapiens, UniProt P01116); assay: Cellular Phospho-ERK AlphaLISA assay, MKN45 cells; format: cell-based; conditions: 2 h incubation; cell line for KRAS WT not given; read-out: relative IC50, reduction of phosphorylated ERK-1/2, cells expressing KRAS WT
T1 construct: endogenous in cells; host or cells: MKN45 human gastric cancer cells

KRAS G12D = target: T2, KRAS G12D (Homo sapiens, UniProt P01116, G12D); assay: Cellular Phospho-ERK AlphaLISA assay, HPAC cells; format: cell-based; conditions: 2 h incubation; read-out: relative IC50, reduction of phosphorylated ERK-1/2, cells expressing KRAS G12D
T2 construct: endogenous in cells; host or cells: HPAC human pancreatic cancer cells

KRAS G12V = target: T3, KRAS G12V (Homo sapiens, UniProt P01116, G12V); assay: Cellular Phospho-ERK AlphaLISA assay, SW620 cells; format: cell-based; conditions: for IC50: 2 h incubation, read-out: relative IC50, reduction of phosphorylated ERK-1/2, cells expressing KRAS G12V; for selective inhibition preference for KRas G12V mutant over HRAS and NRAS: SW620 vs MEF-NRAS or MEF-HRAS Phospho-ERK AlphaLISA
T3 construct: endogenous in cells; host or cells: SW620 human colorectal cancer cells

NRAS = NRAS (Homo sapiens, UniProt P01111); assay: Cellular Phospho-ERK AlphaLISA assay, MEF-NRAS cells; format: cell-based, mouse; conditions: RAS-less MEFs expressing NRAS only; read-out: relative IC50, phospho-ERK, MEF-NRAS
HRAS = HRAS (Homo sapiens, UniProt P01112); assay: Cellular Phospho-ERK AlphaLISA assay, MEF-HRAS cells; format: cell-based, mouse; conditions: RAS-less MEFs expressing HRAS only; read-out: relative IC50, phospho-ERK, MEF-HRAS

SMILES	IC50 (WT KRAS Amplification)	IC50 (KRAS G12D)	IC50 (KRAS G12V)	selective inhibition preference for KRas G12V mutant over HRAS and NRAS (KRAS G12V)	IC50 (NRAS)	IC50 (HRAS)
CN(C)[C@H]1CN(c2ncc3c4c(c(-c5ncc(F)c6sc(N)c(C#N)c56)c(Cl)c3n2)COC4)C[C@H]1O.O=CO (atropisomer, axis not shown) [Example 69C, 2-Amino-4-(5-chloro-3-((3S,4R)-3-(dimethylamino)-4-hydroxypyrrolidin-1-yl)-7,9-dihydrofuro[3,4-f]quinazolin-6-yl)-7-fluorothieno[3,2-c]pyridine-3-carbonitrile, Atropsiomer 2 formic acid]	< 500 nM	< 500 nM	< 500 nM			
CN(C)[C@H]1CCN(c2ncc3c4c(c(-c5ccc(F)c6sc(N)c(C#N)c56)c(Cl)c3n2)COC4)C1 (atropisomer, axis not shown) [Example 74A, 2-Amino-4-(5-chloro-3-((S)-3-(dimethylamino)pyrrolidin-1-yl)-7,9-dihydrofuro[3,4-f]quinazolin-6-yl)-7-fluorobenzo[b]thiophene-3-carbonitrile, Atropsiomer 1]	< 500 nM	< 500 nM				
CC(C)N(C)[C@@H]1CN(c2ncc3c4c(c(-c5c(F)ccc6sc(N)c(C#N)c56)c(F)c3n2)COC4)C[C@H]1O (atropisomer, axis not shown) [Example 252D, 2-Amino-5-fluoro-4-(5-fluoro-3-((3R,4R)-3-hydroxy-4-(isopropyl(methyl)amino)pyrrolidin-1-yl)-7,9-dihydrofuro[3,4-f]quinazolin-6-yl)benzo[b]thiophene-3-carbonitrile, Atropsiomer 1]	< 500 nM	< 500 nM	< 500 nM			
N#Cc1c(N)sc2c(F)ccc(-c3c4c(c5cnc(N6CC(N7CCOCC7)C6)nc5c3Cl)COC4)c12 (single isomer, unassigned; atropisomer 1) [Example 70A, 2-Amino-4-(5-chloro-3-(3-morpholinoazetidin-1-yl)-7,9-dihydrofuro[3,4-f]quinazolin-6-yl)-7-fluorobenzo[b]thiophene-3-carbonitrile, Atropisomer 1]		< 500 nM				
CC(C)N(C)[C@@H]1CN(c2ncc3c4c(c(-c5ncc(F)c6sc(N)c(C#N)c56)c(Cl)c3n2)COC4)C[C@@H]1O (single isomer, unassigned; atropisomer 1) [Example 70C]	< 500 nM	< 500 nM	< 500 nM	greater than 10 fold		
CC(C)N(C)[C@H]1CN(c2ncc3c4c(c(-c5c(F)ccc6sc(N)c(C#N)c56)c(F)c3n2)COC4)C[C@@H]1O (single isomer, unassigned; atropisomer 1) [Example 250D]	< 500 nM	< 500 nM	< 500 nM			
C[C@@H]1[C@H](N2CCN(C)CC2)CCN1c1ncc2c3c(c(-c4ncc(F)c5sc(N)c(C#N)c45)c(Cl)c2n1)COC3 (single isomer, unassigned; atropisomer 2) [Example 8D]		< 500 nM	< 500 nM	greater than 10 fold		
C[C@H]1[C@@H](N2CCN(C)CC2)CCN1c1ncc2c3c(c(-c4ncc(F)c5sc(N)c(C#N)c45)c(Cl)c2n1)COC3 (single isomer, unassigned; atropisomer 2) [Example 10D]		< 500 nM	< 500 nM	greater than 10 fold		
CN1CCN([C@H]2CCN(c3ncc4c5c(c(-c6ncc(F)c7sc(N)c(C#N)c67)c(Cl)c4n3)COC5)C2)CC1 (single isomer, unassigned; atropisomer 2) [Example 16D]		< 500 nM	< 500 nM			
CN(C)[C@@H]1CCN(c2ncc3c4c(c(-c5ccc(F)c6sc(N)c(C#N)c56)c(Cl)c3n2)COC4)C1 (single isomer, unassigned; atropisomer 2) [Example 73A]	< 500 nM	< 500 nM				
CC(C)N(C)[C@H]1CN(c2ncc3c4c(c(-c5ncc(F)c6sc(N)c(C#N)c56)c(Cl)c3n2)COC4)C[C@@H]1O (single isomer, unassigned; atropisomer 2) [Example 73C]		< 500 nM	< 500 nM	greater than 10 fold		
CN(C)[C@@H]1CN(c2ncc3c4c(c(-c5c(F)ccc6sc(N)c(C#N)c56)c(F)c3n2)COC4)C[C@H]1O (single isomer, unassigned; diastereomer 1) [Example 78A]	< 500 nM	< 500 nM	< 500 nM	greater than 10 fold		
CN(C)CC1CN(c2ncc3c4c(c(-c5ncc(F)c6sc(N)c(C#N)c56)c(F)c3n2)COC4)CC1O (single isomer, unassigned; isomer 1) [Example 181D, 2-Amino-4-(3-(3-((dimethylamino)methyl)-4-hydroxypyrrolidin-1-yl)-5-fluoro-7,9-dihydrofuro[3,4-f]quinazolin-6-yl)-7-fluorothieno[3,2-c]pyridine-3-carbonitrile, Isomer 1]		< 500 nM				
C[C@H]1CN(C)CCN1C1CN(c2ncc3c4c(c(-c5ncc(F)c6sc(N)c(C#N)c56)c(F)c3n2)COC4)CC1O (single isomer, unassigned; isomer 2) [Example 99D]		< 500 nM	< 500 nM			
C[C@@H](O)CN1CC2CCC(C1)N2c1nc(N2C[C@H]3CC[C@@H](C2)[C@H]3N(C)C)nc2c(F)c(-c3ncc(F)c4sc(N)c(C#N)c34)c3c(c12)COC3 [Example 19B, 2-Amino-4-(3-((1R,5S,8R)-8-(dimethylamino)-3-azabicyclo[3.2.1]octan-3-yl)-5-fluoro-1-(3-((R)-2-hydroxypropyl)-3,8-diazabicyclo[3.2.1]octan-8-yl)-7,9-dihydrofuro[3,4-f]quinazolin-6-yl)-7-fluorothieno[3,2-c]pyridine-3-carbonitrile]		< 500 nM			> 2000 nM	> 2000 nM
CN1CCN([C@H]2CN(c3ncc4c5c(c(-c6ncc(F)c7sc(N)c(C#N)c67)c(F)c4n3)COC5)C[C@@H]2O)CC1 [Example 98D, 2-Amino-7-fluoro-4-(5-fluoro-3-((3S,4S)-3-hydroxy-4-(4-methylpiperazin-1-yl)pyrrolidin-1-yl)-7,9-dihydrofuro[3,4-f]quinazolin-6-yl)thieno[3,2-c]pyridine-3-carbonitrile]		< 500 nM				
CC(C)N(C)[C@H]1CN(c2ncc3c4c(c(-c5ncc(F)c6sc(N)c(C#N)c56)c(F)c3n2)COC4)C[C@@H]1O [Example 101C, 2-Amino-7-fluoro-4-(5-fluoro-3-((3S,4S)-3-hydroxy-4-(isopropyl(methyl)amino)pyrrolidin-1-yl)-7,9-dihydrofuro[3,4-f]quinazolin-6-yl)thieno[3,2-c]pyridine-3-carbonitrile]				greater than 10 fold	> 2000 nM	> 2000 nM
C[C@H]1CN(C2CN(c3ncc4c5c(c(-c6ncc(F)c7sc(N)c(C#N)c67)c(F)c4n3)COC5)CC2O)CCN1C (stereo partly drawn) [Example 101D, 2-Amino-4-(3-(3-((S)-3,4-dimethylpiperazin-1-yl)-4-hydroxypyrrolidin-1-yl)-5-fluoro-7,9-dihydrofuro[3,4-f]quinazolin-6-yl)-7-fluorothieno[3,2-c]pyridine-3-carbonitrile]		< 500 nM	< 500 nM			
CN1CC2CCN(c3ncc4c5c(c(-c6ncc(F)c7sc(N)c(C#N)c67)c(F)c4n3)COC5)C2C1 (stereo not drawn) [Example 136B, 2-Amino-7-fluoro-4-(5-fluoro-3-(5-methylhexahydropyrrolo [3,4-b]pyrrol-1(2H)-yl)-7,9-dihydrofuro[3,4-f]quinazolin-6-yl)thieno[3,2-c]pyridine-3-carbonitrile]				greater than 10 fold	> 2000 nM	> 2000 nM
CN(C)C1CC2(C1)CN(c1ncc3c4c(c(-c5ncc(F)c6sc(N)c(C#N)c56)c(F)c3n1)COC4)C2 [Example 147B, 2-Amino-4-(3-(6-(dimethylamino)-2-aza-spiro[3.3]heptan-2-yl)-5-fluoro-7,9-dihydro-furo[3,4-f]quinazolin-6-yl)-7-fluorothieno[3,2-c]pyridine-3-carbonitrile]				greater than 10 fold	> 2000 nM	> 2000 nM
CN(C)CC1CN([C@@H]2CCN(c3ncc4c5c(c(-c6ncc(F)c7sc(N)c(C#N)c67)c(F)c4n3)COC5)C2)C1 [Example 161D, 2-Amino-4-(3-((R)-3-(3-((dimethylamino)methyl)azetidin-1-yl)pyrrolidin-1-yl)-5-fluoro-7,9-dihydrofuro[3,4-f]quinazolin-6-yl)-7-fluorothieno[3,2-c]pyridine-3-carbonitrile]		< 500 nM	< 500 nM			
N#Cc1c(N)sc2c(F)cnc(-c3c4c(c5cnc(N6CC[C@H](O)C6)nc5c3F)COC4)c12 [Example 163D, 2-Amino-7-fluoro-4-(5-fluoro-3-((S)-3-hydroxypyrrolidin-1-yl)-7,9-dihydrofuro[3,4-f]quinazolin-6-yl)thieno[3,2-c]pyridine-3-carbonitrile]		< 500 nM	< 500 nM			
CN(C)CC1CN(c2ncc3c4c(c(-c5ncc(F)c6sc(N)c(C#N)c56)c(F)c3n2)COC4)CC1O (stereo not drawn) [Example 180D, 2-Amino-4-(3-(3-((dimethylamino)methyl)-4-hydroxypyrrolidin-1-yl)-5-fluoro-7,9-dihydrofuro[3,4-f]quinazolin-6-yl)-7-fluorothieno[3,2-c]pyridine-3-carbonitrile]		< 500 nM	< 500 nM			
